Results from PubChem BioAssay AID330 (DTP/NCI, 2004).
The list is a part of this screen's results and no random one: it is rich in T/C values a quarter to a half above the control, in often repeated tests (any T/C) and in doses without a T/C. Further doses and runs are listed elsewhere. T/C is the treated group as % of the vehicle group. Some entries give survivors of the animals treated and no T/C: the source files T/C as zero there, which appears to mark a toxic dose or a test without result, not a measured value. Some doses without a T/C left all or most animals alive at the check, yet need not have been tolerated: survival well below the control is almost never listed, so the zero probably covers shortened survival too. Counts of survivors are from the toxicity check (mostly the fifth day) where no day follows; animals may have died later. Schedules are NCI's codes, read here as Q, the interval in days (D) or hours (H), X, the number of doses. Some entries were tested several times; the values are given in rising order. For survival time, this PubChem deposit counts one and a half times the control or more as active, and values a quarter to a half above the control carry no call in these data; other NCI protocols may use other cut-offs.

Test system: P388 leukemia ip, CD2F1 mice, survival T/C
Assay: NCI In Vivo Anticancer Drug Screen. Data for tumor model P388 Leukemia (intraperitoneal) in CD2F1 (CDF1) mice
Conditions: T/C endpoint: median survival time, higher T/C = longer survival
[1] = dose: 200.0 mg/kg/injection, schedule: Q01DX005 (ip), vehicle: Klucel (hydroxypropylcellulose) (HPC)
[2] = dose: 200.0 mg/kg/injection, schedule: Q01DX009 (ip), vehicle: saline with Tween-80
[3] = dose: 200.0 mg/kg/injection, schedule: Q01DX009 (ip), vehicle: other
[4] = dose: 400.0 mg/kg/injection, schedule: Q01DX001 (ip), vehicle: Klucel (hydroxypropylcellulose) (HPC)
[5] = dose: 50.0 mg/kg/injection, schedule: Q01DX009 (ip), vehicle: Klucel (hydroxypropylcellulose) (HPC)
[6] = dose: 100.0 mg/kg/injection, schedule: Q01DX009 (ip), vehicle: Klucel (hydroxypropylcellulose) (HPC)
[7] = dose: 200.0 mg/kg/injection, schedule: Q01DX005 (ip), vehicle: saline with Tween-80
[8] = dose: 50.0 mg/kg/injection, schedule: Q01DX005 (ip), vehicle: saline with Tween-80
[9] = dose: 100.0 mg/kg/injection, schedule: Q01DX005 (ip), vehicle: saline with Tween-80
[10] = dose: 200.0 mg/kg/injection, schedule: Q01DX009 (ip), vehicle: Klucel (hydroxypropylcellulose) (HPC)

With O/C(=C\C(=S)S)c1ccccc1 the survivor count (dose: 12.5 mg/kg/injection, schedule: Q04DX003 (ip), vehicle: Klucel (hydroxypropylcellulose) (HPC)) was 5 of 6, the survivor count (dose: 25.0 mg/kg/injection, schedule: Q04DX003 (ip), vehicle: Klucel (hydroxypropylcellulose) (HPC)) was 0 of 6 and the survivor count (dose: 50.0 mg/kg/injection, schedule: Q04DX003 (ip), vehicle: Klucel (hydroxypropylcellulose) (HPC)) was 0 of 6. The survivor count (dose: 100.0 mg/kg/injection, schedule: Q04DX003 (ip), vehicle: Klucel (hydroxypropylcellulose) (HPC)) was 2 of 6, the survivor count (dose: 200.0 mg/kg/injection, schedule: Q04DX003 (ip), vehicle: Klucel (hydroxypropylcellulose) (HPC)) was 0 of 6 and the survivor count (dose: 400.0 mg/kg/injection, schedule: Q04DX003 (ip), vehicle: Klucel (hydroxypropylcellulose) (HPC)) was 0 of 6.
With CCN(CC)C(=O)C1CN2CCc3cc(OC)c(OC)cc3C2CC1O (stereo not given) the T/C [1] was 126 % of control and the survivor count (dose: 400.0 mg/kg/injection, schedule: Q01DX005 (ip), vehicle: Klucel (hydroxypropylcellulose) (HPC)) was 1 of 6.
With CC1Nc2nc(N)[nH]c(=O)c2NC1C (stereo not given) the survivor count (dose: 25.0 mg/kg/injection, schedule: Q01DX005 (ip), vehicle: saline) was 4 of 6.
With O=C1C2=C(Nc3cc([N+](=O)[O-])ccc3N2)OC1c1ccccc1O (stereo not given) the survivor count (dose: 120.0 mg/kg/injection, schedule: Q01DX005 (ip), vehicle: Klucel (hydroxypropylcellulose) (HPC)) was 6 of 6.
For COc1cc(C(=O)N/N=C/c2cccc([N+](=O)[O-])c2)cc(OC)c1OC, the T/C (dose: 100.0 mg/kg/injection, schedule: Q01DX009 (ip), vehicle: saline with Tween-80) was 125 % of control and the T/C [2] was 133 % of control.
For C=C(C)COc1ccc(C)cc1, the survivor count [3] was 2 of 6.
In the case of CC1N(C)c2cc3[nH]c(=O)cc(C(F)(F)F)c3cc2C1(C)C (stereo not given), the survivor count [4] is reported as 6 of 6.
For C=C1C2CCC3(CCC4C5(C)CCCC4(C=[N+](CCO)C5)C3C2)C1O (stereo not given), the survivor count [5] was 0 of 6 and the survivor count [6] was 0 of 6.
In the case of O=C1CCCC2=C1c1cc3c(cc1CCN2)OCO3, the survivor count (dose: 200.0 mg/kg/injection, schedule: Q04DX002 (ip), vehicle: saline with Tween-80) is reported as 0 of 6 and the survivor count (dose: 400.0 mg/kg/injection, schedule: Q04DX002 (ip), vehicle: saline with Tween-80) is reported as 0 of 6.
O=C(NCCCCCNC(=O)C12CC3CC(CC(C3)C1)C2)C12CC3CC(CC(C3)C1)C2 was tested, and the survivor count [1] was 6 of 6.
With O=C1C=C(N2CC2)C(=O)C(N2CC2)=C1N1CC1 the T/C (dose: 0.02 mg/kg/injection, schedule: Q01DX005 (ip), vehicle: saline) was 144 and 146 % of control and the survivor count (dose: 0.32 mg/kg/injection, schedule: Q01DX005 (ip), vehicle: saline) was 9 of 10 and 6 of 6.
C[n+]1c(-c2cc(Cl)cc(Cl)c2)c2cc(N)ccc2c2ccccc21 was tested, and the survivor count (dose: 50.0 mg/kg/injection, schedule: Q01DX009 (ip), vehicle: water) was 3 of 6.
In the case of COc1cc2c(cc1OC)[C@H](Cc1ccc(Oc3cc4c(cc3O)-c3c(OC)c(OC)cc5c3[C@@H](C4)N(C)CC5)cc1)N(C)CC2, the survivor count (dose: 190.0 mg/kg/injection, schedule: Q01DX005 (ip), vehicle: Klucel (hydroxypropylcellulose) (HPC)) is reported as 3 of 6.
In the case of O=C(O)CCCCOc1ccc(N(CCCl)CCCl)cc1, the T/C (dose: 200.0 mg/kg/injection, schedule: Q01DX001 (ip), vehicle: Klucel (hydroxypropylcellulose) (HPC)) is reported as 147 % of control and the survivor count [4] is reported as 3 of 6.
COC(=O)c1nc(=S)[nH]c(C(=O)OC)c1C(=O)c1cccnc1 was tested, and the survivor count (dose: 240.0 mg/kg/injection, schedule: Q01DX005 (ip), vehicle: saline) was 2 of 6.
CCCCCCCCP(=O)(N1CC1C)N1CC1C (stereo not given) was tested, and the survivor count (dose: 25.0 mg/kg/injection, schedule: Q01DX009 (ip), vehicle: saline with Tween-80) was 1 of 6, the survivor count (dose: 50.0 mg/kg/injection, schedule: Q01DX009 (ip), vehicle: saline with Tween-80) was 0 of 6 and the survivor count (dose: 100.0 mg/kg/injection, schedule: Q04DX003 (ip), vehicle: saline) was 6 of 6. The survivor count (dose: 200.0 mg/kg/injection, schedule: Q04DX003 (ip), vehicle: saline) was 0 of 6.
O=C1C(c2ccccc2)=C(c2ccccc2)C2(c3ccccc3)Oc3c(Cl)c(Cl)c(Cl)c(Cl)c3OC12c1ccccc1 (stereo not given) was tested, and the survivor count [2] was 6 of 6.
CCNC(=O)N1CC(=O)Nc2ccccc21 was tested, and the survivor count [7] was 4 of 6.
c1ccc2cc(N=NNc3ccc4ccccc4c3)ccc2c1 was tested, and the survivor count [2] was 2 of 6.
Cc1ccc(S(=O)(=O)Nc2ccc(-c3cc4cc(Cl)ccc4o3)cc2)cc1 was tested, and the survivor count [8] was 6 of 6, the survivor count [9] was 6 of 6 and the survivor count [7] was 6 of 6.
For CCOC(=O)c1c(N)c(=O)oc2c3c(c(O)cc12)OCO3, the survivor count [1] was 6 of 6.
CN=C1NC(=O)C(c2ccccc2)S1 (stereo not given) was tested, and the survivor count [7] was 2 of 6.
For CC(N)C12CC3CC(CC(C3)C1)C2 (stereo not given), the survivor count (dose: 200.0 mg/kg/injection, schedule: Q04DX002 (ip), vehicle: suspension in saline) was 0 of 6 and the survivor count (dose: 400.0 mg/kg/injection, schedule: Q04DX002 (ip), vehicle: suspension in saline) was 0 of 6.
CC(=O)Nc1ccc2nc(SC(C)C)sc2c1 was tested, and the survivor count [5] was 6 of 6, the survivor count [6] was 6 of 6 and the survivor count [10] was 6 of 6.
With CSc1nnc(CCC(=O)Nc2ccc(Cl)cc2Cl)o1 the survivor count (dose: 240.0 mg/kg/injection, schedule: Q01DX005 (ip), vehicle: saline with Tween-80) was 3 of 6.
With CCN(CC)CCCNC(=O)Cc1ccc2c(c1)C(=O)c1ccccc1C2=O the survivor count (dose: 100.0 mg/kg/injection, schedule: Q01DX005 (ip), vehicle: water) was 0 of 6, the survivor count (dose: 200.0 mg/kg/injection, schedule: Q04DX002 (ip), vehicle: water) was 0 of 6 and the survivor count (dose: 400.0 mg/kg/injection, schedule: Q04DX002 (ip), vehicle: water) was 0 of 6.
For NC1CCCCCC1, the survivor count (dose: 200.0 mg/kg/injection, schedule: Q01DX005 (ip), vehicle: saline) was 0 of 5.
With CS(=O)(=O)OCCCCCCCCCOS(C)(=O)=O the T/C (dose: 50.0 mg/kg/injection, schedule: Q04DX003 (ip), vehicle: saline sonified) was 133 % of control, the survivor count (dose: 100.0 mg/kg/injection, schedule: Q04DX003 (ip), vehicle: saline sonified) was 6 of 6 and the survivor count (dose: 200.0 mg/kg/injection, schedule: Q04DX003 (ip), vehicle: saline sonified) was 6 of 6.
In the case of N#C/C(=N\Nc1ccccc1)C(N)=S, the survivor count (dose: 100.0 mg/kg/injection, schedule: Q01DX009 (ip), vehicle: other) is reported as 0 of 6 and the survivor count [3] is reported as 1 of 6.
With O=c1c(Cl)c2cc3c(cc2c2ccccc12)nc1ccccc1n3-c1ccccc1 the survivor count (dose: 100.0 mg/kg/injection, schedule: Q01DX001 (ip), vehicle: saline with Tween-80) was 6 of 6 and the survivor count (dose: 200.0 mg/kg/injection, schedule: Q01DX001 (ip), vehicle: saline with Tween-80) was 6 of 6.
In the case of O=[N+]([O-])c1cccc(C2CC(c3ccccc3)=Nc3ccccc3S2)c1 (stereo not given), the survivor count [10] is reported as 1 of 6.
For CCOC(=O)c1sc2nc(C)[nH]c(=O)c2c1C, the survivor count [9] was 6 of 6 and the survivor count [7] was 2 of 6.
CCN(CC)c1ccc2nc3ccc(N=Nc4c(O)ccc5ccccc45)cc3[n+](-c3ccccc3)c2c1 was tested, and the T/C (dose: 3.12 mg/kg/injection, schedule: Q01DX005 (ip), vehicle: saline) was 128 % of control, the survivor count (dose: 6.25 mg/kg/injection, schedule: Q01DX005 (ip), vehicle: saline) was 4 of 6 and the survivor count (dose: 12.5 mg/kg/injection, schedule: Q01DX005 (ip), vehicle: saline) was 1 of 6.
CCCCOC(=O)NP1(=O)NCc2ccccc2CN1 was tested, and the survivor count (dose: 100.0 mg/kg/injection, schedule: Q01DX005 (ip), vehicle: Klucel (hydroxypropylcellulose) (HPC)) was 5 of 5.
In the case of O=C1C(=O)c2cccc([N+](=O)[O-])c2-c2ccccc21, the T/C [8] is reported as 125 % of control and the survivor count [7] is reported as 2 of 5.
With C=C(C#N)C1OC2OC(C)(C)OC2C1OC (stereo not given) the survivor count [7] was 0 of 6.
